# Data as given in PubChem BioAssay AID504834 (National Center for Advancing Translational Sciences (NCATS), 2011).
# Hit rate of the full screen: of about 320,000 compounds, about 22,000 (6.9%) were called active. This list was built around the results that the source calls inconclusive (neither active nor inactive); the mix of calls is not that of the screen. The call rests on the fitted dose curve; in most records, active means well fitted inhibition curve with a large enough effect; inconclusive means small, poorly fitted or top-dose-only effect, or another doubt; inactive means no such curve, though single readings can be large or run the other way. Potencies beside an inconclusive call are fits to weak or partial responses and may not hold up.
# Test: Primary qHTS for delayed death inhibitors of the malarial parasite plastid, 96 hour incubation
# Details: P. falciparum luciferase reporter growth; series mostly up to 28.7 µM
# Method in brief: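 P. falciparum expressing integrated firefly luciferase, in erythrocytes at 2% hematocrit, 0.05% parasitemia, incubated with compounds 96 h at 37 C, 5% CO2. Growth inhibition read as loss of luminescence; two-generation exposure targets delayed-death apicoplast inhibitors.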
# On the % scale 0 is the no-effect control and ±100 the full control effect; potency means the concentration at half of the fitted maximal effect.
Structure (SMILES),Potency,"activity change, negative = inhibition"
CCOc1ccc(C2Sc3ccccc3NC3=C2C(=O)OC3)cc1 (centres undefined),"inconclusive: 11.7 µM [inhibitor, single point]",
Cn1c(Sc2ccc(C(F)(F)F)cc2[N+](=O)[O-])nnc1-c1ccccc1,"inconclusive: 0.0928 µM [inhibitor, full curve, poor fit]",
CCN(CC)C(=O)C1CCCN(C(=O)c2cc(COc3ccc4ncccc4c3)on2)C1 (centres undefined),inactive,
CCOC(=O)c1c(/N=C/C2C(=O)CCCC2=O)sc(C)c1C,"inconclusive: 18.5 µM [inhibitor, single point]",
CCOC(=O)c1cnn(-c2ncnc3sc4c(c23)CCC4)c1N,"inconclusive: 11.7 µM [inhibitor, single point]",
CCc1cccc(OC2OC(CO)C(O)C(O)C2NC(C)=O)c1 (centres undefined),"inconclusive: 0.233 µM [inhibitor, full curve, poor fit]",
Cc1ccc(C(=O)N(Cc2nc(-c3ccc(C)cc3)no2)C(C)C)cc1,"inconclusive: 18.5 µM [inhibitor, single point]",
Cc1ccc[n+](CC(=O)c2ccc(Br)cc2)c1,inactive,
CSc1nc(Oc2ccc3ccccc3c2)c2ccccc2n1,"inconclusive: 11.7 µM [inhibitor, partial curve, poor fit]",
CC(=O)Oc1ccc(/C=N/NC(=O)c2ccc(N(C)S(=O)(=O)c3ccccc3)cc2)cc1,"inconclusive: 7.38 µM [inhibitor, partial curve, poor fit]",
CC(C(=O)NC1CCCC1)N1CCN(S(=O)(=O)c2ccc(C(C)(C)C)cc2)CC1 (centres undefined),active: 1.47 µM,
CCOC(=O)CC(=O)CSc1nc(N)c(C#N)c(-c2ccc(F)cc2)c1C#N,"inconclusive: 18.5 µM [inhibitor, single point]",
CC(C)(O)C#Cc1ccc([C@@H]2C[C@H]3CN(c4ccccc4)C(=O)[C@]34CCCN24)s1,inactive,
COc1ccc(CCNC(=O)COc2ccc([N+](=O)[O-])cc2)cc1,,inactive: 15.1% [at 5.75 µM]
O=C(CSc1ncnc2c1cnn2-c1ccccc1)Nc1ccccc1,inactive,
Cc1cccc(CC2SC(N3CCN(c4ccccc4)CC3)=NC2=O)c1 (centres undefined),"inconclusive: 18.5 µM [inhibitor, single point]",
COc1ccc(OC)c(C2NC(=O)NC(C)=C2C(=O)Nc2ccc(C)cc2C)c1 (centres undefined),inactive,
CC(C)(CCO)Nc1ncnc2onc(-c3ccc(F)cc3)c12,inactive,
CC(=O)c1c(N2CCOCC2)[nH]c(-c2ccccc2)nc1=S,"inconclusive: 16.5 µM [inhibitor, partial curve, poor fit]",
CC(=O)Nc1cccc(NC(=O)CSc2nc3c(c(=O)n(C)c(=O)n3C)n2C)c1,inactive,
Cn1cc(CN2CCN(Cc3ccc4c(c3)OCO4)CC2)c(-c2ccccc2F)n1,"inconclusive: 1.65 µM [inhibitor, partial curve, poor fit]",
CCOCC(=O)Nc1ccc(-c2cn3cccnc3n2)cc1,"inconclusive: 0.0208 µM [inhibitor, partial curve, poor fit]",
COc1ccc(C(=O)NCC(=O)OCc2ccc(Cl)cc2Cl)cc1OC,"inconclusive: 18.5 µM [inhibitor, partial curve, poor fit]",

# Single records (already shown):
# Cc1ccc(C(=O)N(Cc2nc(-c3ccc(C)cc3)no2)C(C)C)cc1 as listed: Potency: inconclusive: 18.5 µM [inhibitor, single point]
# CCc1cccc(OC2OC(CO)C(O)C(O)C2NC(C)=O)c1 (centres undefined) as listed: Potency: inconclusive: 0.233 µM [inhibitor, full curve, poor fit]
# COc1ccc(OC)c(C2NC(=O)NC(C)=C2C(=O)Nc2ccc(C)cc2C)c1 (centres undefined) as listed: Potency: inactive
# CC(C)(O)C#Cc1ccc([C@@H]2C[C@H]3CN(c4ccccc4)C(=O)[C@]34CCCN24)s1 as listed: Potency: inactive

# Next part

Structure (SMILES),Potency,"activity change, negative = inhibition"
CCC1(CC)Cc2ccccc2-c2nc(NCCO)[nH]c(=O)c21,"inconclusive: 13.1 µM [inhibitor, partial curve, poor fit]",
N#Cc1ccc(NC(=O)Nc2cccc(C#N)c2)cc1,active: 6.57 µM,
COc1ccc(-c2nnc3ccc(SCc4ccccc4)nn23)cc1,"inconclusive: 0.0033 µM [inhibitor, full curve, poor fit]",
CCOC(=O)c1ccccc1NC(=O)COc1ccccc1,"inconclusive: 18.5 µM [inhibitor, single point]",
CCCc1nc(-c2cc3ccc(C)cc3[nH]c2=O)no1,active: 3.7 µM,
C=CCSc1nnc(-c2cc(Br)ccc2N)c(=O)[nH]1,"inconclusive: 18.5 µM [inhibitor, single point]",
Cc1ccc(OCc2cnc(Cl)s2)c(C)c1,inactive,
COc1ccc(/C=N/NC(=O)c2nc(-c3ccccc3)n(-c3ccccc3)n2)cc1,"inconclusive: 18.5 µM [inhibitor, single point]",
CCOc1ccc(C2SCC(=O)Nc3c2c(=O)[nH]n3C2CCCCCC2)cc1 (centres undefined),"inconclusive: 1.04 µM [inhibitor, full curve]",
CC1CCc2sc3ncnc(N4CCN(CCO)CC4)c3c2C1 (centres undefined),"inconclusive: 18.5 µM [inhibitor, single point]",
O=C(O)c1cccc(NC(=S)NC(=O)c2ccc3ccccc3c2)c1,"inconclusive: 7.38 µM [inhibitor, partial curve]",
c1csc(C2(N3CCCCC3)CCCCC2)c1,"inconclusive: 0.301 µM [inhibitor, full curve, poor fit]",
COc1ccccc1C1(CC(=O)Nc2nccs2)CCOC(C(C)C)C1 (centres undefined),active: 13.1 µM,
CC1=C(C)/C(=N\OC(=O)/C=C/c2ccccc2)C=CC1=O,"inconclusive: 18.5 µM [inhibitor, single point]",
COc1ccc(C(=O)NC2=Nc3ccccc3N=C(C)C2c2ccccc2)cc1 (centres undefined),"inconclusive: 18.5 µM [inhibitor, single point]",
O=C(CSc1ccccc1Cl)NC1CCCc2ccccc21 (centres undefined),"inconclusive: 5.86 µM [inhibitor, partial curve, poor fit]",
CN(C)CCCNc1oc(-c2ccccc2Cl)nc1S(=O)(=O)c1ccccc1,"inconclusive: 9.28 µM [inhibitor, single point]",
CCOc1ccc(-c2nc(C#N)c(NCC3CCCO3)o2)cc1 (centres undefined),"inconclusive: 18.5 µM [inhibitor, single point]",
COc1ccc(S(=O)(=O)CCC(=O)Nc2cccc(OC)c2)cc1,"inconclusive: 18.5 µM [inhibitor, single point]",
CCOC(=O)Cn1nc(C)cc1NC(=O)c1ccncc1,"inconclusive: 18.5 µM [inhibitor, single point]",
C=CCn1c(CCNC(=O)C(C)(C)C)nc2ccccc21,"inconclusive: 18.5 µM [inhibitor, single point]",
CCC(=O)N/N=c1/sc2ccccc2n1C,"inconclusive: 11.7 µM [inhibitor, single point]",
Cc1ccc(/C([O-])=C(/C(=S)NCc2ccco2)[n+]2ccccc2)cc1,"inconclusive: 18.5 µM [inhibitor, single point]",

# Two neighbouring records from above:
Structure (SMILES),Potency,"activity change, negative = inhibition"
COc1ccc(CCNC(=O)COc2ccc([N+](=O)[O-])cc2)cc1,,inactive: 15.1% [at 5.75 µM]
O=C(CSc1ncnc2c1cnn2-c1ccccc1)Nc1ccccc1,inactive,

# More structures

Structure (SMILES),Potency,"activity change, negative = inhibition"
CCCCCOc1ccc(C(C)(O)C(CN2CCOCC2)c2ccccc2)cc1 (centres undefined),inactive,
Clc1cccc(Nc2nc(N3CCOCC3)nc(N3CCOCC3)n2)c1,"inconclusive: 7.38 µM [inhibitor, partial curve]",
O=C(Nc1ccc(Cl)cn1)c1ccc2ccccc2n1,"inconclusive: 18.5 µM [inhibitor, single point]",
O=C(NCc1cccs1)C1CCCN(C(=O)Nc2ccccc2)C1 (centres undefined),"inconclusive: 9.28 µM [inhibitor, single point]",
O=C1CCNCCN1[C@H](CO)c1ccccc1,"inconclusive: 0.0657 µM [inhibitor, full curve, poor fit]",
CCc1noc(C)c1C(=O)N(CC(C)C)c1c(N)n(Cc2ccccc2)c(=O)[nH]c1=O,inactive,
COc1ccccc1N1CCN(C(=O)c2cccc(S(=O)(=O)NCc3cccnc3)c2)CC1,"inconclusive: 10.4 µM [inhibitor, single point]",
CCOCC(=O)Nc1ccc(OCc2ccccc2)cc1,inactive,
Cn1ccnc1SCCNC(=O)CCc1nnc(CCc2ccccc2)o1,active: 10.4 µM,
COc1ccccc1CNC(=O)C1CC(c2c(Cl)cccc2Cl)=NO1 (centres undefined),"inconclusive: 18.5 µM [inhibitor, single point]",
COc1ccc(N2CCN(C(=O)c3ccc4c(c3)[nH]c(=S)n3c5ccccc5nc43)CC2)cc1,inactive,
COCCN(CCOC)C(=O)C1CCN(c2ccc(S(=O)(=O)N3CCOCC3)cc2[N+](=O)[O-])CC1,"inconclusive: 3.29 µM [inhibitor, full curve]",
CCOC(=O)c1cc(-c2ccc3c(c2)OCO3)nc2onc(C)c12,"inconclusive: 14.7 µM [inhibitor, partial curve, poor fit]",
COc1cccc(/C=N/NC(=O)NC2CCCCC2)c1O,"inconclusive: 18.5 µM [inhibitor, single point]",
COc1cc(C(=O)NC(C)c2ccc3ccccc3c2)cc(Cl)c1O (centres undefined),"inconclusive: 10.4 µM [inhibitor, single point]",
O=C(NC(=S)N1CCN(Cc2ccccc2)CC1)c1cccnc1,"inconclusive: 0.0828 µM [inhibitor, full curve, poor fit]",
CCOc1ccc(N2C(=O)CSC2=S)cc1,active: 13.1 µM,
COc1ccccc1/C=N/NC(=O)c1csc(C)c1C,inactive,
Cc1cccc2sc(NC(=O)Cn3c(C)csc3=O)nc12,inactive,
COc1ccc(OC)c(-n2c(SCC(=O)Nc3cccc(S(N)(=O)=O)c3)nc3ccccc3c2=O)c1,"inconclusive: 18.5 µM [inhibitor, single point]",
Cc1ccc2c(c1)[C@H]1[C@H](CO2)[C@H](c2ccccc2)[C@]2(C)C(=O)N(Cc3ccc(Cl)cc3)CC(=O)N12,"inconclusive: 9.28 µM [inhibitor, partial curve, poor fit]",
Oc1ccc(Br)cc1CNc1ccccn1,active: 6.57 µM,
CCOc1ccc(CCNC(=O)COC(=O)/C=C/c2cccc(OC)c2)cc1OCC,"inconclusive: 18.5 µM [inhibitor, single point]",
